Data published in PMC8814081.
These are yes or no findings as the source states them, for the method shown. In cells and extracts the contact can be indirect. Some entries that bind do so weakly or less than the wild type. For some of these results: Tags and fused reporters may be left off the sequences shown.

The chains behind the UniProt entries cited, without tags or fusion partners.
UniProt P29466: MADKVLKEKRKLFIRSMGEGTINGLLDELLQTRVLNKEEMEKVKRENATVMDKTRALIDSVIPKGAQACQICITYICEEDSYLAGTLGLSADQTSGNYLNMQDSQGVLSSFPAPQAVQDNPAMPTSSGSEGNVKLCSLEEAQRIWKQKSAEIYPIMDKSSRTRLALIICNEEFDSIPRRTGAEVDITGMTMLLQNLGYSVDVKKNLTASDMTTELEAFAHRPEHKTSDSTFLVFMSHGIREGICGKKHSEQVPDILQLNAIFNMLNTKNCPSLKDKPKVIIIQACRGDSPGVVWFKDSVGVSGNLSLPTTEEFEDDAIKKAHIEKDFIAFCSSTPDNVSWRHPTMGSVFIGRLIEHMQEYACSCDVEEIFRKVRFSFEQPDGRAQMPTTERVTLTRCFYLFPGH
UniProt Q86TM6: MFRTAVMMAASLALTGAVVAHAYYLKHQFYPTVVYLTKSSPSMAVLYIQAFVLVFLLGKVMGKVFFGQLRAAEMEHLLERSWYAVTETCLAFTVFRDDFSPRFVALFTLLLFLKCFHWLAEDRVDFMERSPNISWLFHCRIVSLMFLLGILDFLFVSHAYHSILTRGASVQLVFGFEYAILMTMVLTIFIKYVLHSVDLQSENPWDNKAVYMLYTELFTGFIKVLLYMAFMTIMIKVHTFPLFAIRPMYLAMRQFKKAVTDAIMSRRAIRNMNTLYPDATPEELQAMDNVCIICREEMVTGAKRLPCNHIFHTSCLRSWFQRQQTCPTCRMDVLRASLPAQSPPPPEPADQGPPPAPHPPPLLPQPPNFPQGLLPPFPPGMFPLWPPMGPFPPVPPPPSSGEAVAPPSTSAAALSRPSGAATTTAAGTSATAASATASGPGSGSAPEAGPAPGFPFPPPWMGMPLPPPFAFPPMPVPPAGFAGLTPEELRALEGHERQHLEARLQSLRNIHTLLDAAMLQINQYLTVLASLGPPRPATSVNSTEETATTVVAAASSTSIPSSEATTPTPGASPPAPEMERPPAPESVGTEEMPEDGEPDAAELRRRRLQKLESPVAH

Tests used:
[1] = biological target: T1, endogenous GSDMD (THP-1 cells) (human (endogenous in THP-1)) (UniProt P57764); test: co-IP; endogenous proteins in THP-1 cells; immunoprecipitation with anti-SYVN1 or anti-GSDMD antibody, immunoblot with anti-SYVN1 and anti-GSDMD
T1 sequence: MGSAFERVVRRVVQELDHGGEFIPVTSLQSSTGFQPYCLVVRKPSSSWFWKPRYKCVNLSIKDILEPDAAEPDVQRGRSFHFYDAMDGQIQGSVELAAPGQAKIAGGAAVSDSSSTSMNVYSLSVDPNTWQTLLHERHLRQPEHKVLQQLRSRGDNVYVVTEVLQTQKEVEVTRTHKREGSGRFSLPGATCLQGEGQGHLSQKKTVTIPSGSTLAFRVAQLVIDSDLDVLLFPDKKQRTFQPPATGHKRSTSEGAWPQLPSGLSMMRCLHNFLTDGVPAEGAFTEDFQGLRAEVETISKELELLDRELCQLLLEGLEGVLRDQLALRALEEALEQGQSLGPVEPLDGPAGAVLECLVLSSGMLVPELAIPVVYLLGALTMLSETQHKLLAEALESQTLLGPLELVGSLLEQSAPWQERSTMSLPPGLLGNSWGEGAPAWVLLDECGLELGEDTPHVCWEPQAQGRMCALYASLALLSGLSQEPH

[2] = biological target: T2, p3 × Flag-Caspase-4 (human) (UniProt P49662); test: co-IP; HEK293T cells co-transfected; lysates incubated with anti-Flag beads at 4 °C, washed with cold TBS; immunoblot with anti-Myc and anti-Flag
T2 sequence: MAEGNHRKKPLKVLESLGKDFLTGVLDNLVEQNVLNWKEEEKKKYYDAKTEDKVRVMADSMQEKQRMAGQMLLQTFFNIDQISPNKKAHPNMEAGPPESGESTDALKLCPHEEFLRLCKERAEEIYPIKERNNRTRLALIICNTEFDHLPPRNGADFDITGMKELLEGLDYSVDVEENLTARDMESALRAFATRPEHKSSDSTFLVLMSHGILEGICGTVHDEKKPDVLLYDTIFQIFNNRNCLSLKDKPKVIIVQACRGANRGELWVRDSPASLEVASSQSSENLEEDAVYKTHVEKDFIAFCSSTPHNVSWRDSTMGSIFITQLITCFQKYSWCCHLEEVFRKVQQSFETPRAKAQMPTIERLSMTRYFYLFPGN

[3] = biological target: T3, Flag-human GSDMD (p3 × Flag-hGSDMD-FL) (human) (UniProt P57764); test: as above
T3 sequence: T1 sequence

[4] = biological target: p3 × Flag-Caspase-1 (human) (UniProt P29466); test: as above

| binding [1] | binding [2] | binding [3] | binding [4] | Substance |
| --- | --- | --- | --- | --- |
| binds | – | – | – | endogenous SYVN1 (THP-1 cells) (from UniProt Q86TM6 1-617) (enzyme) |
| – | no binding | binds | no binding | SYVN1-Myc (pcDNA3.1-SYVN1-Myc) (from UniProt Q86TM6 1-617) (enzyme) |
